From US20240101687A1

target: IGFIIR; assay: ELISA, IGFIIR coated, minibody titrated 0.000256-20 nM, Abs. at 450 nm

binding | Binder
no binding (tested: 20 nM) | 1226 minibody (Fc fusion, not shown: a dimerising Fc or GST) QSVPTQPPSASGTPGQRVTISCTGSSSNIGNNTVSWYQQLPGTAPKLLIYYDNHRPSGVPDRFSGSKSGTSASLAISGLRSEDEADYYCGSWDASLNGYVFGCGTKLTVLGGGGSGGGGSGGGGSGGGGSEVQLLESGGGLVQPGGSLRLSCAVSGFTFSNYDMSWVRQAPGKCLEWVSSISPDGGSKYYADSVKGRFTISRDNSKNTLYLQMNSLRAEDTAVYYCARDGGTHWLSLFDYWGQGTLVTVSS
no binding (tested: 20 nM) | 996 minibody (Fc fusion, not shown: a dimerising Fc or GST) QSVLTQPPSASGTPGQRVTISCTGSSSNIGSNAVNWYQQLPGTAPKLLIYSNSHRPSGVPDRFSGSKSGTSASLAISGLRSEDEADYYCATWDYSLSGYVFGCGTKLTVLGGGGSGGGGSGGGGSGGGGSEVQLLESGGGLVQTGGSLRLSCAASGFTFSSYDMSWVRQAPGKCLEWVSGIYHDGSSTYYADSVQGRFTISRDNSKNTLYLQMNSLRAEDTAVYYCARVSGTLSEPYAFFFNAMDVWGQGTLVTVSS
no binding (tested: 20 nM) | 1564 minibody (Fc fusion, not shown: a dimerising Fc or GST) QSVLTQPPSASGTPGQRVTISCTGSSSNIGSNDVSWYQQLPGTAPKLLIYANSNRPSGVSDRFSGSKSGTSASLAISGLRSEDEADYYCGAWDDSLNGYVFGCGTKLTVLGGGGSGGGGSGGGGSGGGGSEVQLLESGGGLVQPGGSLRLSCAASGFTFSSYDMSWVRQAPGKCLEWVSAISYDNGNTYYADSVKGRFTISRDNSKNTLYLQMNSLRAEDTAVYYCAKGVLTTLMNWFDYWGQGTLVTVSS

Results are given in words; binding and its absence hold for the method and conditions named.
